Record: PubChem BioAssay AID1259405 (NCATS, 2018)
The whole screen tested about 50,000 reagents; this is a part drawn at random. In the full data, about 4,000 (8%) got an active call. 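Mouse siRNA library applied to hamster cells; one well for each siRNA.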 Entries without a mark were called inactive. The numbers tell different reagents against one gene apart.

- Purpose: 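Knock-downs that lift recombinant protein yield in hamster ovary cells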 (primary screen)
- System: Chinese hamster CHO-K1 ovary cells with stable secreted eGFP expression
- Reagent: single siRNA against mouse genes, 0.8 pmol siRNA per well (2 µl of 400 nM stock)
- Duration: 3 days
- Read-out: 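Per-well intracellular GFP measured by laser scanning cytometry, plus viability from ATP luminescence, each relative to plate median of non-targeting control wells, in %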
- Scale: GFP, % of control: higher = more GFP per well, higher productivity; viability (ATP), % of control: higher = more viable cells (more ATP)
- Active means: 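Called active when intracellular GFP, relative to negative control, is at or above 120%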

gene knocked down | siRNA no. | GFP, % of control | viability (ATP), % of control
Bpifb1 | 1 | 55.5 | 89.7
Bpifb1 | 2 | 38.8 | 42.5
Bpifb1 | 3 | 74.1 | 117
Tpd52l1 | 1 | 66.4 | 76.2
Tpd52l1 | 2 | 92.1 | 91.4
Tpd52l1 | 3 | 132 (active) | 119
Slc25a20 | 1 | 62.6 | 74.7
Slc25a20 | 2 | 106 | 72.2
Slc25a20 | 3 | 75.9 | 64.3
Mrpl18 | 1 | 44.8 | 50.2
Mrpl18 | 2 | 123 (active) | 82.9
Mrpl18 | 3 | 107 | 59.1
Brk1 | 1 | 90.8 | 91.6
Brk1 | 2 | 107 | 96.1
Brk1 | 3 | 102 | 91
Pex26 | 1 | 98 | 109
Pex26 | 2 | 61.3 | 48
Pex26 | 3 | 70.9 | 109
Cpsf4 | 1 | 67.4 | 77.2
Cpsf4 | 2 | 45.3 | 48.3
Cpsf4 | 3 | 63.9 | 80
Or4c112 | 1 | 56.8 | 41.9
Or4c112 | 2 | 95.6 | 61.8
Or4c112 | 3 | 80.6 | 103
Dlat | 1 | 74.1 | 92.9
Dlat | 2 | 161 (active) | 90.4
Cenpo | 1 | 91 | 94.8
Cenpo | 2 | 45.9 | 47.7
Cenpo | 3 | 71.7 | 66.5
Gm9725 | 1 | 103 | 84.7
Gm9725 | 2 | 45.5 | 51.9
Gm9725 | 3 | 79.2 | 105
Dclre1a | 1 | 65.2 | 68.7
Dclre1a | 2 | 123 (active) | 96.4
Dclre1a | 3 | 58.1 | 44.9

3 of these entries, set out differently.
{"gene knocked down":"Or4c112","siRNA no.":3,"GFP, % of control":80.6,"viability (ATP), % of control":103}
{"gene knocked down":"Dlat","siRNA no.":1,"GFP, % of control":74.1,"viability (ATP), % of control":92.9}
{"gene knocked down":"Dlat","siRNA no.":2,"GFP, % of control":"161 (active)","viability (ATP), % of control":90.4}
